Results are given in words; binding and its absence hold for the method and conditions named. In cells and extracts the contact can be indirect. These calls come from enrichment with a bait or labelling near it, and not all partners need be listed.
Columns and labels:
Assay in all cases: proximity labelling; BioID, large-scale, direct identification of biotinylated peptides: same NTR-BirA* lines; biotinylated peptides eluted from streptavidin beads with 80% ACN, 20% TFA after the on-bead digest, MS
[1] = target: IMA5 (human) (UniProt P52294)
[2] = target: T1, importin 13 (IPO13) (human) (UniProt O94829)
T1 sequence: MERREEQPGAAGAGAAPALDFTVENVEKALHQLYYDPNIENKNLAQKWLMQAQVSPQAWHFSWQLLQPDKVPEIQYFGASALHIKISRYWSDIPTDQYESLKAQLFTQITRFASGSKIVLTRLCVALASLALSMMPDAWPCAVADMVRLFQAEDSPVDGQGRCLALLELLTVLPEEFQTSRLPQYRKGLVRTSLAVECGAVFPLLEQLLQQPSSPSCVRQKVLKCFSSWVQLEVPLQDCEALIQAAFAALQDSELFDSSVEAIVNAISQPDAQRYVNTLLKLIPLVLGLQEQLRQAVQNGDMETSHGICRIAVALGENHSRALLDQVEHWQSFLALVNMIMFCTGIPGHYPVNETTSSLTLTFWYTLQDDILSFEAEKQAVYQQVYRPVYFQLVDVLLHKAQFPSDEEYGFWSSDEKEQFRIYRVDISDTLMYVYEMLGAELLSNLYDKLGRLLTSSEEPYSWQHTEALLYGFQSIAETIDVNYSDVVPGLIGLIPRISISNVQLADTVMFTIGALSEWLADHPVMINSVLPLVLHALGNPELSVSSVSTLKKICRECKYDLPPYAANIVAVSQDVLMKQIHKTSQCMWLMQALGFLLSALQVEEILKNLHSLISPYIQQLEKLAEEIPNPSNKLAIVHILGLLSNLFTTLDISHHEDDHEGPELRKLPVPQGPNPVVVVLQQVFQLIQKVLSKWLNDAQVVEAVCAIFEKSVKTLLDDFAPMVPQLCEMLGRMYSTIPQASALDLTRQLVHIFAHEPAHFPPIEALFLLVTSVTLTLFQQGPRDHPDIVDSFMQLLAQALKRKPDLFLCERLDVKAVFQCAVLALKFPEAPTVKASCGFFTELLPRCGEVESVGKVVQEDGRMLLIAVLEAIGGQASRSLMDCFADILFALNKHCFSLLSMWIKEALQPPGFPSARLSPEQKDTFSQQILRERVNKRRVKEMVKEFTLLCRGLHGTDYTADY

Sequences of proteins named here, by UniProt entry; tags and fusion partners are left off.
UniProt P52294: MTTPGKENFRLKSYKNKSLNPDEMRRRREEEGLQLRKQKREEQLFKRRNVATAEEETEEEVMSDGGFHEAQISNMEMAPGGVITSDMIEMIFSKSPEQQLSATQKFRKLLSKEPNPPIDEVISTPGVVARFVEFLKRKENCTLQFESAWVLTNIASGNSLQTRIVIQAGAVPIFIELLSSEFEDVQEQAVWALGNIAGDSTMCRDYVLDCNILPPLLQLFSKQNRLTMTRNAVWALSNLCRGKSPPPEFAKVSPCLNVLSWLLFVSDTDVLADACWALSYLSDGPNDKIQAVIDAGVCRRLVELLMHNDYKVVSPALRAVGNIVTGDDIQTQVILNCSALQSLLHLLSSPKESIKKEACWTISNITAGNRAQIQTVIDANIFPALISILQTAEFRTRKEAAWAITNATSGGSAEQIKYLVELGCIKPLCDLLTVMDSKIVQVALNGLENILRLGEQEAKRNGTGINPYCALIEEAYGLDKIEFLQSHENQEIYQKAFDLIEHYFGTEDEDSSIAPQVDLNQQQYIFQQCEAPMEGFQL
UniProt Q8TEX9: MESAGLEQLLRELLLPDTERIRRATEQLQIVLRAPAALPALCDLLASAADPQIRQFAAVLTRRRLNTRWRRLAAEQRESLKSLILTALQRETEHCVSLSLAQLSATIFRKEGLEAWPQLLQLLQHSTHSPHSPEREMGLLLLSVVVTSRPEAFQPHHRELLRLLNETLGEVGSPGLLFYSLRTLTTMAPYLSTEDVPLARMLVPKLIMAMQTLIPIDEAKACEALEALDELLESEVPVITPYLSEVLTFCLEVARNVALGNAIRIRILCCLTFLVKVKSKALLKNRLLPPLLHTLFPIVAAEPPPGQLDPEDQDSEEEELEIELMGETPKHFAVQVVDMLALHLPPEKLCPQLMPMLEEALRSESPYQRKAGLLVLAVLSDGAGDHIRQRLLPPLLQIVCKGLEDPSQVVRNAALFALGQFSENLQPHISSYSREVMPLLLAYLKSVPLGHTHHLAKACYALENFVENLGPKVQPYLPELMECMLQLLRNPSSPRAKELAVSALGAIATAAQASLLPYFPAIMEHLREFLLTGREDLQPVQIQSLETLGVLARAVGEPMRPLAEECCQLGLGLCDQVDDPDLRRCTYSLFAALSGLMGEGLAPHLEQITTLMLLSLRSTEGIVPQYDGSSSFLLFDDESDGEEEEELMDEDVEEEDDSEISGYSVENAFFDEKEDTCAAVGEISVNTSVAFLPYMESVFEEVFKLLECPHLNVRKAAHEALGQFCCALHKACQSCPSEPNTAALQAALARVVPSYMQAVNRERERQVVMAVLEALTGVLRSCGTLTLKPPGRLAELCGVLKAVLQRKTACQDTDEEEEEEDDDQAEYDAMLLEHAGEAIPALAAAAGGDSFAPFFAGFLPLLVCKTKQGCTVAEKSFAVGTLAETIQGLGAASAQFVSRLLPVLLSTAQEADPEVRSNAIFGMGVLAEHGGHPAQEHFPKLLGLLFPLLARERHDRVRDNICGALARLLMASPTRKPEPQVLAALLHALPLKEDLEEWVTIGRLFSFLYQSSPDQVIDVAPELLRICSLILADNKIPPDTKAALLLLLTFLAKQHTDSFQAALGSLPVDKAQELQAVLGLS
UniProt P55060: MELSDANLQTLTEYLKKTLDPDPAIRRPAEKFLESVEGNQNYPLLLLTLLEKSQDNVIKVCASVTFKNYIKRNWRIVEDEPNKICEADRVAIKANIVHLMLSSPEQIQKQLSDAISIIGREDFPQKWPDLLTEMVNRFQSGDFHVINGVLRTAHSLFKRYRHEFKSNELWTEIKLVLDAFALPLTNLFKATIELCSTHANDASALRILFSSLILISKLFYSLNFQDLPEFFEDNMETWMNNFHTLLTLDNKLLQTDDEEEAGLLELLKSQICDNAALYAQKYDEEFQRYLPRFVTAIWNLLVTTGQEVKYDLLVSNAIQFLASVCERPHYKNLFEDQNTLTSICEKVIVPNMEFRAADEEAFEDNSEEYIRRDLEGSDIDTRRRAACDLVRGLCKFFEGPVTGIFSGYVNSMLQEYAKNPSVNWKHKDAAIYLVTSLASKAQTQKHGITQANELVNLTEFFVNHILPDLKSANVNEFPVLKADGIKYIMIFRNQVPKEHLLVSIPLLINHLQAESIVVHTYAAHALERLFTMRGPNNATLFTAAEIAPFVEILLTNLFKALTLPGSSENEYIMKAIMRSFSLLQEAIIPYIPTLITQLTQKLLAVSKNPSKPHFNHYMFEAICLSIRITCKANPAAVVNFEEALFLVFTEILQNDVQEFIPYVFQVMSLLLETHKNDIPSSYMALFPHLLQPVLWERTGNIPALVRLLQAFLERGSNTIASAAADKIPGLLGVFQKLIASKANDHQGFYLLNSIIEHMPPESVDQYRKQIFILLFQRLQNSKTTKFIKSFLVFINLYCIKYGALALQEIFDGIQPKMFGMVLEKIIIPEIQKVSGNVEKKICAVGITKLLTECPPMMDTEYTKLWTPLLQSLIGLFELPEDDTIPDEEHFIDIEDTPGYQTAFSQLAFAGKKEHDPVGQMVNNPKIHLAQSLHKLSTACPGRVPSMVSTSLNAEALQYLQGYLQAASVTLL
UniProt P49790: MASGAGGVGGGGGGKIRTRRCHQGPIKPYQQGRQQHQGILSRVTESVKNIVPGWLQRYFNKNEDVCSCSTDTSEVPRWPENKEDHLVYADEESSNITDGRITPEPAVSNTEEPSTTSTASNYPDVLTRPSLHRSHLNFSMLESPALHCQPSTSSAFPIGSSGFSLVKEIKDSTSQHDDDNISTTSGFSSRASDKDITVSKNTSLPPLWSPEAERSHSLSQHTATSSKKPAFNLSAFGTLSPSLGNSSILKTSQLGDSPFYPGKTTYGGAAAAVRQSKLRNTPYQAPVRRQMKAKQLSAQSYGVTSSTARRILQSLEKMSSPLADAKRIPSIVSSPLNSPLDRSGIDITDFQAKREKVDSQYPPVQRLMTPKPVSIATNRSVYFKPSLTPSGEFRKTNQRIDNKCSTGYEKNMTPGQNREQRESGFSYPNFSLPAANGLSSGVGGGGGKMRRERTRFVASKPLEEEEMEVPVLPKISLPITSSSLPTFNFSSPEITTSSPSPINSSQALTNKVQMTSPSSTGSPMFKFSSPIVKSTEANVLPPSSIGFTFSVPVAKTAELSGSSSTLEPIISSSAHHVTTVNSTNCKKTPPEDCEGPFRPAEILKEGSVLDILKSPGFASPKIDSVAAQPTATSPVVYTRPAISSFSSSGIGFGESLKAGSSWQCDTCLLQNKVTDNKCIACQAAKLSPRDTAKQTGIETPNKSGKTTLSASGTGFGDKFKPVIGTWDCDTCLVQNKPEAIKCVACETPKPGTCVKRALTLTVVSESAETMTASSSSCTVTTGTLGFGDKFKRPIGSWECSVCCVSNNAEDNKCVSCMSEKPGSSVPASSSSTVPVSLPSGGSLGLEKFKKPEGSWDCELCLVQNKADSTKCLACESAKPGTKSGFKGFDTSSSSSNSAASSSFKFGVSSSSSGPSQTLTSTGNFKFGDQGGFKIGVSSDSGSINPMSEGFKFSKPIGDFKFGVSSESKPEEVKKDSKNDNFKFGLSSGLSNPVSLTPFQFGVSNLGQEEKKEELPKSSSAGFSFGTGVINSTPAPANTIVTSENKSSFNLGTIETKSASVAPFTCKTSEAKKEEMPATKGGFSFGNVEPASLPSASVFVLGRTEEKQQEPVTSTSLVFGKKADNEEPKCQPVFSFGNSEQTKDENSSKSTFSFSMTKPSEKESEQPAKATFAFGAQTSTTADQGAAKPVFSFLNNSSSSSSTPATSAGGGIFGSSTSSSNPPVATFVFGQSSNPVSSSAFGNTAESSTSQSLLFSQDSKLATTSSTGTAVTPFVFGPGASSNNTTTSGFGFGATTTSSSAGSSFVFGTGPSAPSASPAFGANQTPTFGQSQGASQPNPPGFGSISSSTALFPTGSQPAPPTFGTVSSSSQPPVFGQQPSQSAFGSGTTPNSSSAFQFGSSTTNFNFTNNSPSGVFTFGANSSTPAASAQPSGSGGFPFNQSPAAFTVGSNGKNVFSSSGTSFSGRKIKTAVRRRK

[3] = target: IPO4 (human) (UniProt Q8TEX9)
[4] = target: XPO2 (human) (UniProt P55060)
[5] = target: T2, IPO11 (human) (UniProt Q9UI26)
T2 sequence: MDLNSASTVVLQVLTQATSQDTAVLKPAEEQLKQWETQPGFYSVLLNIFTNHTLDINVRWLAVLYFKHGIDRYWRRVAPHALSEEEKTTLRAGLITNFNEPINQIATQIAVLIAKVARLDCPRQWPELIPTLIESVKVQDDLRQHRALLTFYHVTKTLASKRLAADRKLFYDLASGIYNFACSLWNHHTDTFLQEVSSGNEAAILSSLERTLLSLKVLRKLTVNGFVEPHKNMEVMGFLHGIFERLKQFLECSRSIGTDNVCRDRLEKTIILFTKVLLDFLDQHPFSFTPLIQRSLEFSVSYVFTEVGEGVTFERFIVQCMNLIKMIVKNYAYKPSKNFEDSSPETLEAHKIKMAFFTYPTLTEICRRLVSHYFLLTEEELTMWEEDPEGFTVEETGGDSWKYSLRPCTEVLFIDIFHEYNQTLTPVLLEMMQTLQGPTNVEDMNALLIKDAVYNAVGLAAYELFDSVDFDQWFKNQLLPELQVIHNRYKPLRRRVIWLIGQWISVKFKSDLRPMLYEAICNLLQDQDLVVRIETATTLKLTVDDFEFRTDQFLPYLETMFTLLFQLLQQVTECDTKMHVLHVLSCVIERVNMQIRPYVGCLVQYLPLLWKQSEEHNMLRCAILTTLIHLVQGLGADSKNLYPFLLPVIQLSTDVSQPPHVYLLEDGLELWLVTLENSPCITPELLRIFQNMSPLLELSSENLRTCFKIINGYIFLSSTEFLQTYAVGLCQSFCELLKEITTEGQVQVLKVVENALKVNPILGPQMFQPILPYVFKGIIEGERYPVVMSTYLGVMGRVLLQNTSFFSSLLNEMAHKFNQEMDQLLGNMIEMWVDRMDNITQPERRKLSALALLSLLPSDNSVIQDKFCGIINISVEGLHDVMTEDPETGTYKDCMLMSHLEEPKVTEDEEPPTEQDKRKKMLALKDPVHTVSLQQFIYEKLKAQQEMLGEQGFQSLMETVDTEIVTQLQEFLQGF

[6] = target: T3, NXT1 (human) (UniProt Q9UKK6)
T3 sequence: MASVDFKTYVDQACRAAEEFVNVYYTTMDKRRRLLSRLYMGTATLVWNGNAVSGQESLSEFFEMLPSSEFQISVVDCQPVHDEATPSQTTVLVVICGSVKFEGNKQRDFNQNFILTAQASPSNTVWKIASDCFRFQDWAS

Which results are given for NUP153 (from UniProt P49790 1-1475)?
binding [1]: binds; binding [2]: binds weakly; binding [3]: binds weakly; binding [4]: binds; binding [5]: binds weakly; binding [6]: binds

From paper PMC5740495
